# The whole screen tested about 340,000 compounds, of which about 6,200 (1.8%) were called active. The shares of active, inactive and inconclusive entries below differ from those in the screen. The call rests on the fitted dose curve; in most records, active means well fitted activation curve with a large enough effect; inconclusive means small, poorly fitted or top-dose-only effect; inactive means no such curve, though single readings can be large or run the other way. Potencies of inconclusive entries are doubtful fits and often do not repeat.
# Experiment: A quantitative high throughput screen for small molecules that induce DNA re-replication in SW480 colon adenocarcinoma cells. Further: nearly all actives have a fitted effect of over 55% in size. On re-replication activation: % of control where 0% means no effect.
# Settings: Hoechst DNA content imaging, 48 h; re-replication activation: at 46.1 µM (top of the series)
# How it was run: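 Readout is total intensity of Hoechst-stained nuclei, excited at 405 nm and collected at 500-530 nm. Compound treatment lasted 48 hr at 37 C in 5% CO2 before staining.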
# Potency means the concentration at half of the fitted maximal effect.
Structure (SMILES),Potency,re-replication activation
CCC(CC)NCC(O)COc1ccc(Br)cc1 (stereo unspecified),inactive,
COc1cc(C(=O)NCCCNc2nc3cc(C)c(C)cc3cc2C#N)cc(OC)c1OC,inactive,
FC(F)(F)c1ccc(Cl)c(N/N=C/c2ccc(N3CCOCC3)s2)c1,"inconclusive: 13 µM [activator, single point]",
CN(C)CCCN(C(=O)c1ccc2c(c1)CCCC2)c1nc2ccc(Cl)cc2s1,"inconclusive: 23.1 µM [activator, single point]",
Cc1ccc(OCc2nnc(SC(C)C(=O)O)n2Cc2ccccc2)cc1 (stereo unspecified),inactive,
CCc1nnc(NC(=O)CSc2nnc(-c3ccccc3O)n2-c2ccc(C)cc2C)s1,active: 18.4 µM,
COc1cc(NC(=O)c2ccc(C)cc2C)ccc1NC(=O)c1cc2ccccc2o1,"inconclusive: 5.17 µM [activator, full curve, poor fit]",
N#CCNc1ccc([N+](=O)[O-])cc1C#N,"inconclusive: 0.731 µM [activator, partial curve, poor fit]",
C[C@H]1CN(S(=O)(=O)c2c(F)cccc2F)CCN1S(=O)(=O)c1ccc2c(c1)OCCO2,inactive,
CC1(c2ccc(OCC#N)cc2)C=C(c2ccc(OCC#N)cc2)n2nc(C(F)(F)F)nc2N1 (stereo unspecified),"inconclusive: 29.1 µM [activator, single point]",
CCOc1ccc(N(CC(=O)Nc2cccc(OC)c2)S(C)(=O)=O)cc1,,inconclusive: 94.1% [activator]
Cc1cccc(NC(=O)CSc2nnc(C)n2Cc2ccccc2)c1,inactive,
N#Cc1c2n(c3c(=S)nc[nH]c13)CCCCC2,inactive,
O=C1NC(c2ccccc2)N=C2Oc3ccccc3C=C12 (stereo unspecified),"inconclusive: 7.31 µM [activator, partial curve]",
Cc1ccc(C(=O)NCCNC(=O)Cc2ccccc2)cn1,"inconclusive: 23.1 µM [activator, single point]",
COc1ccc(N2C(=O)CC(N3CCCCC3)C2=O)cc1 (stereo unspecified),inactive,
CCOC(=O)C1(CCOc2ccccc2)CCN(Cc2cccc(OC)c2OC)CC1,"inconclusive: 29.1 µM [activator, single point]",
COCCn1c(SCc2nnc(-c3ccc(OC)c(OC)c3)o2)nnc1-c1ccncc1,"inconclusive: 25.9 µM [activator, single point]",

# A different layout for part of the listing above:
Structure (SMILES) | Potency | re-replication activation
CCOc1ccc(N(CC(=O)Nc2cccc(OC)c2)S(C)(=O)=O)cc1 |  | inconclusive: 94.1% [activator]
Cc1cccc(NC(=O)CSc2nnc(C)n2Cc2ccccc2)c1 | inactive | 
N#Cc1c2n(c3c(=S)nc[nH]c13)CCCCC2 | inactive | 
O=C1NC(c2ccccc2)N=C2Oc3ccccc3C=C12 (stereo unspecified) | inconclusive: 7.31 µM [activator, partial curve] | 
Cc1ccc(C(=O)NCCNC(=O)Cc2ccccc2)cn1 | inconclusive: 23.1 µM [activator, single point] | 
COc1ccc(N2C(=O)CC(N3CCCCC3)C2=O)cc1 (stereo unspecified) | inactive | 
CCOC(=O)C1(CCOc2ccccc2)CCN(Cc2cccc(OC)c2OC)CC1 | inconclusive: 29.1 µM [activator, single point] | 
COCCn1c(SCc2nnc(-c3ccc(OC)c(OC)c3)o2)nnc1-c1ccncc1 | inconclusive: 25.9 µM [activator, single point] | 

# (list continues)

Structure (SMILES),Potency,re-replication activation
Cc1ccc(O)c(-c2cc(C(=O)Nc3cccnc3)[nH]n2)c1,"inconclusive: 1.84 µM [activator, full curve, poor fit]",
C#CCn1cc(Cl)cc(C(=O)Nc2ccccc2)c1=O,inactive,
O=C(CCc1ccccn1)NC1CCCc2c1cnn2-c1ccc(F)cc1F (stereo unspecified),inactive,
CCOc1ccc(NC(=O)CN(C)C(=O)CC2CCCC2)cc1OCC,"inconclusive: 0.146 µM [activator, full curve, poor fit]",
O=C1/C(=C/c2ccc(F)cc2)SC(=S)N1Nc1ncc(C(F)(F)F)cc1Cl,"inconclusive: 20.6 µM [activator, single point]",
C/C(=N\O)C(C)(C)Nc1ccc(Br)cc1,"inconclusive: 2.59 µM [activator, partial curve, poor fit]",
COc1ccccc1C(=O)NNC(=O)c1cccc(F)c1,"inconclusive: 29.1 µM [activator, single point]",
CCOC(=O)C1CCN(C(=O)C2CCC(=O)N(Cc3cccc(C(F)(F)F)c3)C2)CC1 (stereo unspecified),"inconclusive: 23.1 µM [activator, single point]",
CC(Sc1nccn1C)C(=O)Nc1ccccc1 (stereo unspecified),"inconclusive: 29.1 µM [activator, single point]",
Cc1cccc(-c2nc(Nc3ccc(O)cc3)c3ccccc3n2)c1,"inconclusive: 16.4 µM [activator, single point]",
O=C(CCCN1CCC(NC(=O)c2ccccc2)CC1)c1ccc(Cl)cc1,inactive,
CC1(C(=O)NNC(=S)NCC2CCCO2)CC1(Cl)Cl (stereo unspecified),"inconclusive: 23.1 µM [activator, single point]",
CCC(=O)N1CCN(C(=O)c2ccccc2)CC1,"inconclusive: 0.231 µM [activator, single point]",
CCn1c(SCC(=O)Nc2ccccc2N2CCCCC2)nc2c1c(=O)n(C)c(=O)n2C,"inconclusive: 29.1 µM [activator, single point]",
O=C(c1ccccc1)N(c1ccccc1)c1ccccc1O,"inconclusive: 20.6 µM [activator, single point]",
CN1CCOC1c1ccc(C2OCCN2C)cc1 (stereo unspecified),inactive,
COc1ccc(/C=c2\s/c(=C\C(=O)C(C)(C)C)[nH]c2=O)cc1O,inactive,
Cc1nc(C(=O)Nc2ccccc2Cl)cc2c1[nH]c1ccccc12,"inconclusive: 23.1 µM [activator, partial curve, poor fit]",

# From PubChem BioAssay AID624297 (National Center for Advancing Translational Sciences (NCATS), 2012)
